Taken from: PubChem BioAssay AID493246 (Drosophila RNAi Screening Center, 2011)
In all, the deposit lists about 21,000 reagents; below is an unselected part of those with a known target gene and a result. In the full data, 429 (2%) got an active call. 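Values are raw and not normalised between plates; calls rest on per-plate z-scores that were not deposited.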 A plus sign joins genes that one reagent is predicted to hit. No sequences are given here. Not stated in the record: the amount of reagent, the time to read-out.

- Purpose: 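Genes fly cells need to grow and stay alive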 (primary screen)
- System: Drosophila Kc and S2R+ cells
- Reagent: long dsRNA against Drosophila genes
- Read-out: 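Cell number per well after knock-down, printed as raw plate values; calls were based on per-plate z-scores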
- Reading the numbers: Kc cell number and S2R+ cell number: higher = more cells remaining
- Hit rule: 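Active when the per-plate z-score of cell number is 3 or more in the direction of fewer cells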

| gene | amplicon | Kc cell number, rep 1 | Kc cell number, rep 2 | S2R+ cell number, rep 1 | S2R+ cell number, rep 2 | outcome |
| --- | --- | --- | --- | --- | --- | --- |
| CG11629 | DRSC03695 | 1.51e6 | 1.60e6 | 1.26e6 | 2.97e5 | inactive |
| CG7182 | DRSC10780 | 1.33e6 | 1.42e6 | 1.34e6 | 1.08e6 | inactive |
| Rsph9 (Radial spoke head protein 9) | DRSC01594 | 1.50e6 | 1.57e6 | 9.43e5 | 1.12e6 | inactive |
| nAChRalpha2 (nicotinic Acetylcholine Receptor alpha2) | DRSC17009 | 1.49e6 | 1.57e6 | 1.07e6 | 1.07e6 | inactive |
| RpS4 (Ribosomal protein S4) | DRSC11272 | 8.46e5 | 8.49e5 | 7.34e5 | 8.80e5 | active |
| CG16741 | DRSC06622 | 1.76e6 | 1.76e6 | 1.16e6 | 1.40e6 | inactive |
| para (paralytic) | DRSC19141 | 1.24e6 | 1.39e6 | 1.11e6 | 1.19e6 | inactive |
| para (paralytic) | DRSC20360 | 1.57e6 | 1.54e6 | 1.08e6 | 1.21e6 | inactive |
| ush (u-shaped) | DRSC00843 | 1.46e6 | 1.45e6 | 5.89e5 | 7.77e5 | inactive |
| CG33640 | DRSC01324 | 1.44e6 | 1.50e6 | 1.06e6 | 1.15e6 | inactive |
| CG8852 | DRSC00719 | 1.51e6 | 1.41e6 | 1.12e6 | 1.26e6 | inactive |
| PGRP-SC2 (Peptidoglycan recognition protein SC2) | DRSC06481 | 1.67e6 | 1.67e6 | 1.35e6 | 1.47e6 | inactive |
| Sgs3 (Salivary gland secretion 3) | DRSC11280 | 1.60e6 | 1.49e6 | 1.41e6 | 1.52e6 | inactive |
| CG10660 | DRSC09769 | 1.47e6 | 1.43e6 | 8.73e5 | 1.03e6 | inactive |
| Zir (Zizimin-related) | DRSC00307 | 1.28e6 | 1.18e6 | 7.41e5 | 7.09e5 | inactive |
| CG3703 | DRSC18172 | 1.56e6 | 1.58e6 | 1.10e6 | 1.15e6 | inactive |
| CG3703 | DRSC18173 | 1.51e6 | 1.53e6 | 1.04e6 | 1.14e6 | inactive |
| CG3703 | DRSC18643 | 1.41e6 | 1.43e6 | 1.02e6 | 1.11e6 | inactive |
| CG6931 | DRSC10750 | 1.47e6 | 1.57e6 | 1.25e6 | 1.22e6 | inactive |
| CG5561 | DRSC00688 | 1.72e6 | 1.73e6 | 1.09e6 | 1.19e6 | inactive |
| Obp99a (Odorant-binding protein 99a) | DRSC15303 | 1.40e6 | 1.45e6 | 8.06e5 | 8.81e5 | inactive |
| CG7991 | DRSC08609 | 1.23e6 | 1.28e6 | 1.01e6 | 1.19e6 | inactive |
| by (blistery) | DRSC16482 | 1.48e6 | 1.55e6 | 1.30e6 | 1.39e6 | inactive |
| CG9581 | DRSC20695 | 1.49e6 | 1.57e6 | 1.07e6 | 1.19e6 | inactive |
| Itpr (Inositol 1,4,5,-trisphosphate receptor) | DRSC12354 | 1.53e6 | 1.63e6 | 1.32e6 | 1.50e6 | inactive |
| CG14974 | DRSC08433 | 1.48e6 | 1.31e6 | 9.91e5 | 1.20e6 | inactive |
| CG34281 | DRSC14807 | 1.43e6 | 1.46e6 | 1.03e6 | 1.03e6 | inactive |
| bip1 | DRSC11327 | 1.37e6 | 1.47e6 | 1.35e6 | 1.24e6 | inactive |
| Cyp28d1 (Cytochrome P450 28d1) | DRSC03298 | 1.37e6 | 1.40e6 | 6.56e5 | 8.22e5 | inactive |
| CG5500 | DRSC15820 | 1.62e6 | 1.60e6 | 1.08e6 | 1.20e6 | inactive |
| Dll (Distal-less) | DRSC04610 | 1.60e6 | 1.64e6 | 1.37e6 | 1.31e6 | inactive |
| CG31955 | DRSC00285 | 1.89e6 | 1.76e6 | 1.19e6 | 1.42e6 | inactive |
| Fntb (Farnesyl transferase beta subunit) | DRSC15244 | 1.43e6 | 1.55e6 | 1.14e6 | 1.20e6 | inactive |
| CG1273 | DRSC08291 | 1.45e6 | 1.56e6 | 1.08e6 | 1.17e6 | inactive |
| d4 | DRSC04881 | 1.49e6 | 1.63e6 | 1.06e6 | 1.01e6 | inactive |
| Hsp23 (Heat shock protein 23) | DRSC11188 | 1.31e6 | 1.35e6 | 1.32e6 | 1.29e6 | inactive |
| CG6900 (retired record) | DRSC20018 | 1.52e6 | 1.47e6 | 1.04e6 | 1.18e6 | inactive |
| CG42824 + CG42823 | DRSC13230 | 1.47e6 | 1.50e6 | 1.01e6 | 1.13e6 | inactive |
| Cep290 (Centrosomal protein 290kDa) | DRSC08359 | 1.52e6 | 1.43e6 | 1.09e6 | 1.42e6 | inactive |

Continued; the last 3 above are carried over.
| gene | amplicon | Kc cell number, rep 1 | Kc cell number, rep 2 | S2R+ cell number, rep 1 | S2R+ cell number, rep 2 | outcome |
| --- | --- | --- | --- | --- | --- | --- |
| CG6900 (retired record) | DRSC20018 | 1.52e6 | 1.47e6 | 1.04e6 | 1.18e6 | inactive |
| CG42824 + CG42823 | DRSC13230 | 1.47e6 | 1.50e6 | 1.01e6 | 1.13e6 | inactive |
| Cep290 (Centrosomal protein 290kDa) | DRSC08359 | 1.52e6 | 1.43e6 | 1.09e6 | 1.42e6 | inactive |
| CG17190 | DRSC15184 | 1.47e6 | 1.47e6 | 1.08e6 | 1.16e6 | inactive |
| CG11828 | DRSC14394 | 1.52e6 | 1.59e6 | 1.05e6 | 1.19e6 | inactive |
| Sox21b | DRSC10025 | 1.32e6 | 1.30e6 | 6.50e5 | 7.10e5 | active |
| Sox21b | DRSC10634 | 1.45e6 | 1.44e6 | 8.44e5 | 9.67e5 | active |
| sbb (scribbler) | DRSC05723 | 5.55e5 | – | 7.82e5 | – | inactive |
| sbb (scribbler) | DRSC07676 | 1.73e6 | 1.72e6 | 1.33e6 | 1.45e6 | inactive |
| inaD (inactivation no afterpotential D) | DRSC04694 | 1.65e6 | 1.71e6 | 1.29e6 | 1.38e6 | inactive |
| spo (spook) | DRSC11127 | 1.30e6 | 1.23e6 | 1.22e6 | 1.26e6 | inactive |
| CG13791 (retired record) | DRSC02295 | 1.68e6 | 1.58e6 | 1.16e6 | 1.40e6 | inactive |
| CG18190 | DRSC06714 | 1.75e6 | 1.72e6 | 1.18e6 | 1.35e6 | inactive |
| SkpF + CG5357 (retired record) | DRSC04120 | 1.47e6 | 1.57e6 | 1.25e6 | 1.24e6 | inactive |
| CG30053 | DRSC07260 | 1.61e6 | 1.63e6 | 1.31e6 | 1.48e6 | inactive |
| Cpr76Ba (Cuticular protein 76Ba) | DRSC11060 | 1.31e6 | 1.36e6 | 1.21e6 | 1.37e6 | inactive |
| Dd (Dullard) | DRSC20539 | 1.76e6 | 1.74e6 | 1.12e6 | 1.22e6 | inactive |
| CG9231 | DRSC11054 | 1.52e6 | 1.53e6 | 1.23e6 | 1.24e6 | inactive |
| cyst (cysts) | DRSC02023 | 1.26e6 | 1.41e6 | 1.36e6 | 1.44e6 | inactive |
| Acp53C14b (Accessory gland protein 53C14b) | DRSC06569 | 1.62e6 | 1.69e6 | 1.20e6 | 1.42e6 | inactive |
| Nep7 (Neprilysin 7) | DRSC15830 | 1.53e6 | 1.62e6 | 1.02e6 | 1.14e6 | inactive |
| CG14111 | DRSC10114 | 1.36e6 | 1.33e6 | 1.41e6 | 1.48e6 | inactive |
| CG10979 | DRSC12153 | 1.31e6 | 1.31e6 | 1.35e6 | 1.48e6 | inactive |
